Values from PubChem BioAssay AID1259424 (University of Nebraska Medical Center, 2018)

Purpose: 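Rank knockdowns across the genome by resemblance to the KSR1 depletion profile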 (primary screen)
Cells: human HCT116 colon cancer cells
Reagents: siRNA pool against human genes, 50 nM
Detection: 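Six signature mRNAs by branched-DNA multiplex assay, scaled to two housekeeping genes and non-targeting median, log2; matched to mean KSR1 knockdown profile by Pearson correlation and euclidean distance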
Scale: mean correlation with KSR1 profile and KSR1 correlation: higher = expression change more like KSR1 knockdown; mean distance from KSR1 profile: higher = expression change less like KSR1 knockdown
Here is a random part of about 14,000 deposited reagents. 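Higher correlation or smaller distance means closer resemblance to KSR1 loss; control wells, including KSR1 knockdowns, recur on many plates.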 Further read-outs or replicates are left out here. No sequences are given here. The record does not give: the time to read-out.

| target | PubChem SID | mean correlation with KSR1 profile | mean distance from KSR1 profile | KSR1 correlation, replicate 1 | KSR1 correlation, replicate 2 |
| --- | --- | --- | --- | --- | --- |
| NGEF (neuronal guanine nucleotide exchange factor) | SID364001455 | 0.0675 | 3.03 | 0.338 | -0.128 |
| CDC42BPB (CDC42 binding protein kinase beta) | SID363996886 | 0.854 | 0.934 | 0.617 | 0.881 |
| FTO (FTO alpha-ketoglutarate dependent dioxygenase) | SID364005235 | -0.759 | 2.41 | -0.858 | -0.318 |
| ATP4A (ATPase H+/K+ transporting subunit alpha) | SID363992002 | 0.0402 | 2.07 | 0.177 | 0.0678 |
| RAB33B (RAB33B, member RAS oncogene family) | SID364003585 | 0.797 | 1.38 | 0.699 | 0.783 |
| CORO2B (coronin 2B) | SID363996934 | 0.102 | 1.37 | 0.3 | -0.0126 |
| ECEL1 (endothelin converting enzyme like 1) | SID363995779 | -0.602 | 3.56 | -0.699 | -0.545 |
| GRIN2C (glutamate ionotropic receptor NMDA type subunit 2C) | SID363992123 | -0.0766 | 1.33 | -0.496 | -0.329 |
| EDEM2 (ER degradation enhancing alpha-mannosidase like protein 2) | SID364000885 | -0.0569 | 2.12 | -0.0816 | 0.086 |
| EYA3 (EYA transcriptional coactivator and phosphatase 3) | SID363993202 | -0.318 | 2.23 | -0.433 | -0.252 |
| MSRB2 (methionine sulfoxide reductase B2) | SID363998155 | 0.28 | 1.08 | 0.326 | 0.0582 |
| CST1 (cystatin SN) | SID363993111 | 0.26 | 3.79 | 0.279 | 0.322 |
| FXR2 (FMR1 autosomal homolog 2) | SID363995811 | 0.111 | 3 | 0.383 | -0.052 |
| KIR2DL5A | SID364001730 | -0.311 | 1.99 | -0.521 | -0.2 |
| VNN1 (vanin 1) | SID363995630 | -0.702 | 2.22 | -0.528 | -0.648 |
| ZNF132 (zinc finger protein 132) | SID363994535 | -0.546 | 4.3 | -0.486 | -0.511 |
| CD302 (CD302 molecule) | SID363999167 | 0.0488 | 1.5 | 0.214 | 0.0886 |
| DDX31 (DEAD-box helicase 31) | SID364002551 | -0.495 | 2.73 | -0.518 | -0.64 |
| DDX19A (DEAD-box helicase 19A) | SID364000983 | 0.0531 | 2.4 | 0.0062 | 0.0702 |
| WDR3 (WD repeat domain 3) | SID363997553 | 0.439 | 6.51 | 0.00897 | 0.635 |

Ordered by “mean correlation with KSR1 profile” (lowest first): some entries from above
| target | PubChem SID | mean correlation with KSR1 profile | mean distance from KSR1 profile | KSR1 correlation, replicate 1 | KSR1 correlation, replicate 2 |
| --- | --- | --- | --- | --- | --- |
| FTO (FTO alpha-ketoglutarate dependent dioxygenase) | SID364005235 | -0.759 | 2.41 | -0.858 | -0.318 |
| ATP4A (ATPase H+/K+ transporting subunit alpha) | SID363992002 | 0.0402 | 2.07 | 0.177 | 0.0678 |
